PubChem BioAssay AID1259405, NCATS | 2018

- Assay: 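Silenced genes that increase secreted GFP made by CHO cells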 (primary screen)
- System: Chinese hamster CHO-K1 ovary cells with stable secreted eGFP expression
- Reagents: single siRNA against mouse genes, 0.8 pmol siRNA per well (2 µl of 400 nM stock)
- Time to read-out: 3 days
- Measurement: 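Percent of the per-plate non-targeting control median for intracellular GFP per well by laser scanning cytometry and for cell viability by ATP luminescence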
- Direction: GFP, % of control: higher = more GFP per well, higher productivity; viability (ATP), % of control: higher = more viable cells (more ATP)
- Hit rule: 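a knock-down is called active if GFP reaches 120% or more of non-targeting control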
This is one part, drawn at random, of about 50,000 deposited reagents. About 4,000 of all reagents (8%) were called active. 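Mouse siRNA library applied to hamster cells; one well for each siRNA.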 Reagents against one gene are numbered here.

gene symbol | siRNA no. | GFP, % of control | viability (ATP), % of control | call
Kcnk13 | 1 | 72.9 | 82.7 | inactive
Kcnk13 | 2 | 60.4 | 70.8 | inactive
Kcnk13 | 3 | 71 | 86.4 | inactive
Bpnt1 | 1 | 135 | 103 | active
Bpnt1 | 2 | 73.2 | 92.4 | inactive
Bpnt1 | 3 | 31.9 | 15.4 | inactive
Prdx1 | 1 | 79.7 | 77.2 | inactive
Prdx1 | 2 | 87.4 | 68 | inactive
Prdx1 | 3 | 57.9 | 39.4 | inactive
Acox1 | 1 | 85.9 | 66.7 | inactive
Acox1 | 2 | 99.6 | 95 | inactive
Acox1 | 3 | 70.6 | 64.8 | inactive
Foxj2 | 1 | 120 | 115 | inactive
Foxj2 | 2 | 65.4 | 69.3 | inactive
Rmi1 | 1 | 105 | 74.1 | inactive
Rmi1 | 2 | 114 | 63.1 | inactive
Rmi1 | 3 | 75.2 | 78.8 | inactive
Mpped1 | 1 | 63.7 | 86.3 | inactive
Mpped1 | 2 | 82.2 | 76.3 | inactive
Mpped1 | 3 | 116 | 70.6 | inactive
Fam133b | 1 | 82.9 | 67 | inactive
Fam133b | 2 | 94.2 | 88.9 | inactive
Fam133b | 3 | 95.7 | 134 | inactive
Kdm1a | 1 | 67.6 | 47.7 | inactive
Kdm1a | 2 | 59.2 | 52.5 | inactive
Kdm1a | 3 | 169 | 116 | active
Ugt2b34 | 1 | 79 | 111 | inactive
Ugt2b34 | 2 | 100 | 86.2 | inactive
Ugt2b34 | 3 | 96.8 | 119 | inactive
Amy2a5 | 1 | 91.8 | 81 | inactive
Amy2a5 | 2 | 135 | 124 | active
Amy2a5 | 3 | 39.6 | 55.4 | inactive
Sntb2 | 1 | 77.8 | 74.7 | inactive
Sntb2 | 2 | 43.3 | 49.9 | inactive
Fv1 | 1 | 89.9 | 103 | inactive
Fv1 | 2 | 70.6 | 83.3 | inactive
Fv1 | 3 | 80.7 | 56.4 | inactive

Records above whose target name starts with B or b:
gene symbol | siRNA no. | GFP, % of control | viability (ATP), % of control | call
Bpnt1 | 1 | 135 | 103 | active
Bpnt1 | 2 | 73.2 | 92.4 | inactive
Bpnt1 | 3 | 31.9 | 15.4 | inactive

More records:
gene symbol | siRNA no. | GFP, % of control | viability (ATP), % of control | call
Selenos | 1 | 63.2 | 57 | inactive
Selenos | 2 | 116 | 68.8 | inactive
Selenos | 3 | 84 | 77.6 | inactive
Oas1g | 1 | 89.9 | 82.8 | inactive
Oas1g | 2 | 80.2 | 85.4 | inactive
Oas1g | 3 | 48.9 | 59.2 | inactive
Rcor3 | 1 | 89.2 | 57.9 | inactive
Rcor3 | 2 | 41.9 | 48.8 | inactive
Rcor3 | 3 | 69.2 | 74.5 | inactive
Sarm1 | 1 | 25.1 | 26.1 | inactive
Sarm1 | 2 | 176 | 95.4 | active
Sarm1 | 3 | 79.1 | 54.7 | inactive
Helb | 1 | 68.7 | 74.8 | inactive
Helb | 2 | 57 | 59 | inactive
Helb | 3 | 113 | 82.6 | inactive
Vrtn | 1 | 116 | 62.6 | inactive
Vrtn | 2 | 78.1 | 95.1 | inactive
Vrtn | 3 | 82.2 | 83.3 | inactive
H3c3 | 1 | 61 | 81.4 | inactive
H3c3 | 2 | 86.7 | 84.8 | inactive
H3c3 | 3 | 62.5 | 69.7 | inactive
Lrrc45 | 1 | 70.6 | 78.2 | inactive
Lrrc45 | 2 | 84.2 | 76.2 | inactive
Lrrc45 | 3 | 110 | 143 | inactive
Sult2a2 | 1 | 78.2 | 88.3 | inactive
Sult2a2 | 2 | 45.9 | 69.6 | inactive
Sult2a2 | 3 | 75.3 | 85 | inactive
Stip1 | 1 | 108 | 87 | inactive
Stip1 | 2 | 80.7 | 44.7 | inactive
Stip1 | 3 | 87 | 67.4 | inactive
Pomgnt1 | 1 | 133 | 67.7 | active
Pomgnt1 | 2 | 93.9 | 68 | inactive
Pomgnt1 | 3 | 70.3 | 51.5 | inactive
Ppp1r8 | 1 | 137 | 71.6 | active
Ppp1r8 | 2 | 116 | 105 | inactive
Ppp1r8 | 3 | 108 | 76.4 | inactive
Serinc5 | 1 | 75.3 | 70 | inactive
Serinc5 | 2 | 64.9 | 75.1 | inactive
Serinc5 | 3 | 35.8 | 56.5 | inactive
Tbx15 | 1 | 61.5 | 65.6 | inactive
Tbx15 | 2 | 67.2 | 70.8 | inactive
Tbx15 | 3 | 85.3 | 79.9 | inactive
Or5w1b | 1 | 66.4 | 77.6 | inactive
Or5w1b | 2 | 62.2 | 53.2 | inactive
Or5w1b | 3 | 30.6 | 28.9 | inactive
Mms22l | 1 | 58.7 | 51.3 | inactive
Mms22l | 2 | 42.9 | 53.6 | inactive
Mms22l | 3 | 137 | 56.9 | active
